Earlier results in patent publication US12295937B2, “Psychoactive medicines and their use for treating psychiatric and neurological conditions and disorders” (Transcend Therapeutics, Inc., priority 2021, dated 2025).
For at least one compound, name, drawing or mass did not settle the structure.

Conditions: previous reports (Hibicke 2020; Yang 2013; Tizabi 2012); cited from earlier work

CN(C)CCc1c[nH]c2cccc(OP(=O)(O)O)c12 [psilocybin]
Reduction in immobility in the FST: 67%
